Measurements reported in PubChem BioAssay AID1259405 (NCATS, 2018).
The deposit covers about 50,000 reagents; this is a part drawn at random. About 4,000 of them (8%) count as active. 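Mouse siRNA library applied to hamster cells; one well for each siRNA.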 Unmarked entries are inactive. Reagents against one gene are numbered here. No sequences are given here.

- Assay: 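Silenced genes that increase secreted GFP made by CHO cells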 (primary screen)
- Cell system: Chinese hamster CHO-K1 ovary cells with stable secreted eGFP expression
- Reagents: single siRNA against mouse genes, 0.8 pmol siRNA per well (2 µl of 400 nM stock)
- Time to read-out: 3 days
- Detection: 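Per-well intracellular GFP measured by laser scanning cytometry, plus viability from ATP luminescence, each relative to plate median of non-targeting control wells, in %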
- Direction: GFP, % of control: higher = more GFP per well, higher productivity; viability (ATP), % of control: higher = more viable cells (more ATP)
- Rule for the call: 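Called active when intracellular GFP, relative to negative control, is at or above 120%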

Gene | siRNA no. | GFP, % of control | viability (ATP), % of control
Dlg2 (discs large MAGUK scaffold protein 2) | 1 | 99.3 | 91.1
Dlg2 (discs large MAGUK scaffold protein 2) | 2 | 99.6 | 72.6
Kif17 (kinesin family member 17) | 1 | 91.4 | 81.7
Kif17 (kinesin family member 17) | 2 | 83.1 | 83.5
Nrm (nurim (nuclear envelope membrane protein)) | 1 | 76.4 | 63
Nrm (nurim (nuclear envelope membrane protein)) | 2 | 148 (active) | 81.6
Nrm (nurim (nuclear envelope membrane protein)) | 3 | 71.7 | 52
Or4c127 (olfactory receptor family 4 subfamily C member 127) | 1 | 49.7 | 49.8
Or4c127 (olfactory receptor family 4 subfamily C member 127) | 2 | 184 (active) | 65.7
Or4c127 (olfactory receptor family 4 subfamily C member 127) | 3 | 83.9 | 85.6
Nexn (nexilin) | 1 | 62.4 | 38
Nexn (nexilin) | 2 | 96.5 | 92.9
Nexn (nexilin) | 3 | 97.1 | 77.5
Scamp4 | 1 | 114 | 84.2
Scamp4 | 2 | 66.6 | 89
Scamp4 | 3 | 59.2 | 69.5
Vav2 (vav guanine nucleotide exchange factor 2) | 1 | 103 | 119
Vav2 (vav guanine nucleotide exchange factor 2) | 2 | 82.2 | 68.6
Vav2 (vav guanine nucleotide exchange factor 2) | 3 | 87.9 | 59.8
Cdh15 (cadherin 15) | 1 | 78.3 | 77.1
Cdh15 (cadherin 15) | 2 | 80.6 | 75.6
Cdh15 (cadherin 15) | 3 | 79.4 | 70.8
Pcare (photoreceptor cilium actin regulator) | 1 | 39.8 | 46.1
Pcare (photoreceptor cilium actin regulator) | 2 | 93.6 | 95.8
Pcare (photoreceptor cilium actin regulator) | 3 | 96.6 | 117
Tmlhe (trimethyllysine hydroxylase, epsilon) | 1 | 60.1 | 95.2
Tmlhe (trimethyllysine hydroxylase, epsilon) | 2 | 23.3 | 45.1
Tmlhe (trimethyllysine hydroxylase, epsilon) | 3 | 66.7 | 75.2
Kmt5c (lysine methyltransferase 5C) | 1 | 84.9 | 77.5
Kmt5c (lysine methyltransferase 5C) | 2 | 109 | 128
Kmt5c (lysine methyltransferase 5C) | 3 | 107 | 133
Angptl3 (angiopoietin-like 3) | 1 | 95.4 | 84.8
Angptl3 (angiopoietin-like 3) | 2 | 105 | 112
Dscam (DS cell adhesion molecule) | 1 | 84.9 | 81.9
Dscam (DS cell adhesion molecule) | 2 | 97 | 72.8

Entries above whose gene name begins with P or p:
Gene | siRNA no. | GFP, % of control | viability (ATP), % of control
Pcare (photoreceptor cilium actin regulator) | 1 | 39.8 | 46.1
Pcare (photoreceptor cilium actin regulator) | 2 | 93.6 | 95.8
Pcare (photoreceptor cilium actin regulator) | 3 | 96.6 | 117
